Measurements as given in article PMC8750359.
No constants are given. Whether binding was seen depends on the method and setting. For part of these data: Binding seen in cells or lysates may run through a third protein. Some results given as binding are weak or reduced against the parent protein; the word gives no strength. For part of these data: Sequences can lack the tags named with a protein.

Sequences of proteins named here, by UniProt entry; tags and fusion partners are left off.
UniProt P45700: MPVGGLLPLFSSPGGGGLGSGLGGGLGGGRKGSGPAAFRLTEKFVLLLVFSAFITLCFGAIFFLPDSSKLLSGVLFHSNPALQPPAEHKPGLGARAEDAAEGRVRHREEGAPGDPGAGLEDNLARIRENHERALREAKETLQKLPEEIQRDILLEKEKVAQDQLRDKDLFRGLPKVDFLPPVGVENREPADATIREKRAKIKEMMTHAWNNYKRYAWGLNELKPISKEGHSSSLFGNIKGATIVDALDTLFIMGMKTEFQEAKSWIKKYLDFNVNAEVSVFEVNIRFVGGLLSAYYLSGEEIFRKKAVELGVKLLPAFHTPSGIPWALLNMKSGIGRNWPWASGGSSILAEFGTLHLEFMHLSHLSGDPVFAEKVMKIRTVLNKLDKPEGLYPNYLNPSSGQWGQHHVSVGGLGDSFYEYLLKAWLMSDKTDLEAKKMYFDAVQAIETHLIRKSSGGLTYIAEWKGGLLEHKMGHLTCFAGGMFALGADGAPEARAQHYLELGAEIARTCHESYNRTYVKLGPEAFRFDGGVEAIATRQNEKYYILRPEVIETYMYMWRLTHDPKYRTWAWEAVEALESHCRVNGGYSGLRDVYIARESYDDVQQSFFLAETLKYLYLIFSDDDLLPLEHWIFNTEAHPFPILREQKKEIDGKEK
UniProt P33908: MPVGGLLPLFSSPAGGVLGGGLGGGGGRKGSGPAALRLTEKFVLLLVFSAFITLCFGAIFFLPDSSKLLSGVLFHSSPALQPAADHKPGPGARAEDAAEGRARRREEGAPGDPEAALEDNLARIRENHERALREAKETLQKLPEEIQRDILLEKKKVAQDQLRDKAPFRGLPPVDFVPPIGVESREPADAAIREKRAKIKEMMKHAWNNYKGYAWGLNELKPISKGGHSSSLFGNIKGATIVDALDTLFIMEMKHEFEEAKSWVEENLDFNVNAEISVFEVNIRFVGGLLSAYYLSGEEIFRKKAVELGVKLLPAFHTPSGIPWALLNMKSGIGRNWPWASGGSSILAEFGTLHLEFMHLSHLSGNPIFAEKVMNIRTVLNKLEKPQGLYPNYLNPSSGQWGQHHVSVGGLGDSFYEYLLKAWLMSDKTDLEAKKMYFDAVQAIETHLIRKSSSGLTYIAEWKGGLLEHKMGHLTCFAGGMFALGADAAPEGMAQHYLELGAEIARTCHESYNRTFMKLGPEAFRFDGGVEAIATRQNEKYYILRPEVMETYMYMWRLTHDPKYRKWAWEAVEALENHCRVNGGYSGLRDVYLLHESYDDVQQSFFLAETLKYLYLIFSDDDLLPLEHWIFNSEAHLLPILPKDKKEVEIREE

Columns and labels:
[1] = molecular target: T1, NKCC2 C1-term (proximal region of the NKCC2 C terminus, residues 661–768) (mouse) (UniProt P55014); test: two-hybrid; screen: AH109 expressing the NKCC2 C-terminal bait mated with Y187 pretransformed with a human kidney cDNA library; selection on -Leu -Trp -His, then -Leu -Trp -His -Ade; beta-galactosidase test
T1 sequence: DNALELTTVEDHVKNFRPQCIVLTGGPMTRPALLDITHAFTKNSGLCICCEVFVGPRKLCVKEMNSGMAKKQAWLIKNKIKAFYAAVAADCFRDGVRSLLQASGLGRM

[2] = molecular target: WT ManIA-V5 (mouse Golgi alpha1,2-mannosidase IA, V5-tagged) (mouse) (UniProt P45700); test: co-IP; HEK cells transiently co-transfected with Myc-NKCC2 (or mutant) and ManIA-V5 (or ΔNter); IP with anti-V5, protein G beads, blot with anti-Myc; lysis buffer 0.4 M NaCl, 1.5 mM MgCl2, 10 mM Hepes pH 7.9, 5% glycerol, 0.5% Nonidet P-40
[3] = molecular target: WT ManIA-V5 (mouse Golgi alpha1,2-mannosidase IA, V5-tagged) (mouse) (UniProt P45700); test: co-IP; cells (line not stated) transfected with WT NKCC2 or N442Q/N452Q with or without ManIA-V5; IP with anti-Myc or anti-V5, blot with anti-Myc

In the case of “Golgi alpha1,2-mannosidase IA (ManIA), clone # 40 from a human kidney cDNA library (from UniProt P33908 1-653) (enzyme)”, the binding [1] is reported as “binds”.

B1: Myc-NKCC2 Y998X (Bartter syndrome type 1 mutant) (domain or fragment, UniProt P55014 1-997)
chain: MSVSIPSNSVPSSASRFQVHVINEGHGSAAAVGDSADPPHYEETSFGDEAQNRLRISFRPGNQECYDNFLQTGETAKTDTTFHAYDSHTNTYYLQTFGHNTMDAVPKIEYYRNTGSVSGPKVNRPSLLEIHEQLAKNVTVAPGSADRVANGDGMPGDEQAENKEEDMTGVVKFGWVKGVLVRCMLNIWGVMLFIRLSWIVGEAGIGLGVLIILLSTMVTSITGLSTSAIATNGFVRGGGAYYLISRSLGPEFGGSIGLIFAFANAVAVAMYVVGFAETVVDLLKESDSMMVDPTNDIRIIGSITVVILLGISVAGMEWEAKAQVILLVILLIAIANFFIGTVIPSNNEKKSRGFFNYQASIFAENFGPSFTKGEGFFSVFAIFFPAATGILAGANISGDLEDPQDAIPRGTMLAIFITTVAYIGVAICVAACVVRDATGSMNDTIVSGMNCNGSAACGLGYDFSRCQHEPCQYGLMNNFQVMSMVSGFGPLITAGIFSATLSSALASLVSAPKVFQALCKDNIFKGLQFFAKGYGKNNEPLRGYFLTFVIAMAFILIAELNVIAPIISNFFLASYALINFSCFHASYAKSPGWRPAYGIYNMWVSLFGAILCCAVMFVINWWAAVITYVIELFLYIYVTYKKPDVNWGSSTQALSYVSALDNALELTTVEDHVKNFRPQCIVLTGGPMTRPALLDITHAFTKNSGLCICCEVFVGPRKLCVKEMNSGMAKKQAWLIKNKIKAFYAAVAADCFRDGVRSLLQASGLGRMKPNTLVIGYKKNWRKAPLSELENYVGIIHDAFDFEIGVVIVRISQGFDISPVLQVQDELEKLEQERLALEAAIKDNECEEGKGGIRGLFKKAGKLNITKPAPKKDGNISSIQSMHVGEFNQKLVEASAQFKKKQGKGTIDVWWLFDDGGLTLLIPYILTLRKKWKDCKLRIYVGGKITRIEEEKISMASLLSKFRIKFADIHIIGDINIKPNKESWKVFEEMIEPYRLH
modifications: immature, core-glycosylated form only
For B1, the binding [2] was “binds”.

B2: unglycosylated Myc-NKCC2 (N442Q/N452Q) (protein, UniProt P55014 1-1095)
chain: MSVSIPSNSVPSSASRFQVHVINEGHGSAAAVGDSADPPHYEETSFGDEAQNRLRISFRPGNQECYDNFLQTGETAKTDTTFHAYDSHTNTYYLQTFGHNTMDAVPKIEYYRNTGSVSGPKVNRPSLLEIHEQLAKNVTVAPGSADRVANGDGMPGDEQAENKEEDMTGVVKFGWVKGVLVRCMLNIWGVMLFIRLSWIVGEAGIGLGVLIILLSTMVTSITGLSTSAIATNGFVRGGGAYYLISRSLGPEFGGSIGLIFAFANAVAVAMYVVGFAETVVDLLKESDSMMVDPTNDIRIIGSITVVILLGISVAGMEWEAKAQVILLVILLIAIANFFIGTVIPSNNEKKSRGFFNYQASIFAENFGPSFTKGEGFFSVFAIFFPAATGILAGANISGDLEDPQDAIPRGTMLAIFITTVAYIGVAICVAACVVRDATGSMQDTIVSGMNCQGSAACGLGYDFSRCQHEPCQYGLMNNFQVMSMVSGFGPLITAGIFSATLSSALASLVSAPKVFQALCKDNIFKGLQFFAKGYGKNNEPLRGYFLTFVIAMAFILIAELNVIAPIISNFFLASYALINFSCFHASYAKSPGWRPAYGIYNMWVSLFGAILCCAVMFVINWWAAVITYVIELFLYIYVTYKKPDVNWGSSTQALSYVSALDNALELTTVEDHVKNFRPQCIVLTGGPMTRPALLDITHAFTKNSGLCICCEVFVGPRKLCVKEMNSGMAKKQAWLIKNKIKAFYAAVAADCFRDGVRSLLQASGLGRMKPNTLVIGYKKNWRKAPLSELENYVGIIHDAFDFEIGVVIVRISQGFDISPVLQVQDELEKLEQERLALEAAIKDNECEEGKGGIRGLFKKAGKLNITKPAPKKDGNISSIQSMHVGEFNQKLVEASAQFKKKQGKGTIDVWWLFDDGGLTLLIPYILTLRKKWKDCKLRIYVGGKITRIEEEKISMASLLSKFRIKFADIHIIGDINIKPNKESWKVFEEMIEPYRLHESHKDLTTAEKLKRESPWKITDAELEAVKEKSYRQVRLNELLQEHSRAANLIVLSLPVARKGSISDLLYMAWLEILTKNLPPVLLVRGNHKNVLTFYS
For B2, the binding [3] was “binds”.
